# Laboratory results reported in PubChem BioAssay AID2685 (National Center for Advancing Translational Sciences (NCATS), 2010).
# The other results are listed elsewhere or left out. Shown are side measurements of this screen, not its main read-out; they come without a call. Compounds called inactive in the main read-out are mostly missing here. The note in brackets gives the kind of curve behind each potency; many fits are weak.
# Experiment: qHTS Assay for Lipid Storage Modulators in Drosophila S3 Cells;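 for cell number change: cells counted by Cell Tracker Red CMTPX staining in the red channel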
# Details: BODIPY lipid droplet fluorescence, 18-24 h; for cell number change: measured here: cell count max response, cells fed with added oleic acid
# Outline: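 Laser-scanning cytometry quantifies lipid droplet accumulation (500–530 nm total intensity; droplet/cell object ratio) in oleic acid-fed (400 uM added) Drosophila S3 cells treated with a concentration series. 20 uM Triacsin C defined 100% inhibition.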
# [1] = measured here: cell number channel AC50, cells fed with added oleic acid
# [2] = measured here: lipid fluorescence (Fed channel) AC50, cells fed with added oleic acid
SMILES,cell number change [%],AC50 [1],AC50 [2]
CCOC(=O)C(=O)Nc1cccc(C(=O)OCC)c1,1.25,–,–
CCOC(=O)C1C(CC)NC(=S)NC1(C)O (stereo not given),14.6,"6.51 µM [falling, single point]",–
COc1cc(-c2[nH]nc3c2C(c2ccco2)C(C#N)=C(N)O3)cc(OC)c1OC (stereo not given),3.84,–,"29.1 µM [falling, single point]"
Cc1ccc(NC(=O)NN2CCN(C)CC2)cc1C,12.3,–,"6.51 µM [rising, single point]"
COC(=O)C(Cc1ccc(O)cc1)NC(=O)C1CCN(S(=O)(=O)c2ccc(C)cc2)CC1 (stereo not given),8.56,–,"29.1 µM [rising, single point]"
O=C(NCc1cccnc1)C(=O)Nc1nc(C23CC4CC(CC(C4)C2)C3)cs1,-28,–,"9.2 µM [falling, partial curve]"
OCCN(Cc1ccccc1)Cc1ccc(Cl)cc1,-38.8,"18.4 µM [falling, single point]","0.82 µM [rising, full curve]"
Cc1ccc(NC(=O)c2ccc(NCCCN3CCOCC3)c([N+](=O)[O-])c2)cc1Cl,19.2,–,"0.517 µM [rising, full curve, poor fit]"
COc1ccc(-c2nc(NC(=O)c3cc(C(C)(C)C)nn3C)sc2C)cc1,-30,"0.164 µM [falling, full curve]","0.206 µM [falling, full curve]"
Cc1ccccc1NS(=O)(=O)c1ccc(C(=O)N2CCCCCCC2)cc1,–,–,"1.46 µM [rising, full curve]"
C=CCOc1ccc(Br)cc1CNC(C)(C)C,-4.78,–,–
CCN(C(=O)[C@@H]1CCCN1C(=O)c1cccs1)c1nc2cc(Cl)ccc2s1,3.34,–,"1.46 µM [rising, single point]"
O=c1cc(CN2CCN(Cc3ccccc3)CC2)c2cc(O)ccc2o1,13.5,–,"29.1 µM [rising, single point]"
COc1cc(C)ccc1OCC(=O)Nc1ccc2c(c1)OCO2,-13.4,"4.61 µM [rising, single point]","4.61 µM [rising, single point]"
Cc1ccc(Nc2nc3nonc3[nH]c2=O)cc1,-20.2,"6.51 µM [falling, single point]","0.651 µM [falling, full curve, poor fit]"
CCOC(=O)C1CCCN(C(=O)c2ccccc2Oc2ccccc2)C1 (stereo not given),0.503,–,–
CC(C)OCC(O)CS(=O)Cc1ccccc1 (stereo not given),-36.7,"1.3 µM [falling, partial curve, poor fit]","25.9 µM [falling, partial curve]"

# 3 compounds from above, ordered by number of heavy atoms, falling.
SMILES,cell number change [%],AC50 [1],AC50 [2]
Cc1ccc(NC(=O)c2ccc(NCCCN3CCOCC3)c([N+](=O)[O-])c2)cc1Cl,19.2,–,"0.517 µM [rising, full curve, poor fit]"
O=C(NCc1cccnc1)C(=O)Nc1nc(C23CC4CC(CC(C4)C2)C3)cs1,-28,–,"9.2 µM [falling, partial curve]"
CCOC(=O)C1C(CC)NC(=S)NC1(C)O (stereo not given),14.6,"6.51 µM [falling, single point]",–

# (more compounds)

SMILES,cell number change [%],AC50 [1],AC50 [2]
Cc1ccc(OCCCC(=O)Nc2ccc3c(c2)OCCO3)cc1,-4.58,–,"6.51 µM [rising, single point]"
COc1ccccc1NC(=O)Cc1nnc(SCC(=O)Nc2ccc(F)cc2F)n1C,-11.7,–,"0.58 µM [falling, single point]"
CCc1cc(/C(Cc2ccc3ccccc3n2)=N\O)c(O)cc1O,-30.7,"29.1 µM [falling, single point]",–
N#Cc1ccc(OCC(=O)Nc2cccc(S(=O)(=O)NC3=NCCCCC3)c2)cc1,20.5,–,–
CC(C)(O)C#Cc1ccc(C(=O)N2CCN(C(=O)c3ccco3)CC2)cc1,–,–,"0.58 µM [falling, single point]"
COc1ccc(-c2cnn3c(N)c(S(=O)(=O)c4ccccc4)cnc23)cc1,–,"6.51 µM [rising, single point]",–
C/C(=N\NC(=S)NCc1ccccc1)c1ccc(Br)cc1,28,–,–
CC(/C=C/c1ccc2c(c1)OCO2)=N/NC(=O)c1cccnc1,–,"0.517 µM [rising, partial curve, poor fit]","0.082 µM [rising, full curve]"
CC(=O)N1CCC(N(CCCOC(C)C)C(=O)Nc2ccc(C)c(C)c2)CC1,5.68,–,"1.84 µM [rising, full curve, poor fit]"
COCCN(Cc1ccco1)C(=O)C1CCCN(c2ncnc3c2nc2n3CCCCC2)C1 (stereo not given),-13.7,–,–
COc1ccc(NC(=O)Cn2nnc(C(=O)NCc3cccs3)c2N)cc1OC,5.37,–,"20.6 µM [rising, single point]"
O=S(=O)(c1ccccc1)N(C1=NCCS1)S(=O)(=O)c1ccccc1,21.9,–,"1.46 µM [falling, partial curve]"
COc1ccccc1-c1nnc(NC(C)=O)s1,-13.4,"6.51 µM [rising, single point]",–
COc1ccccc1CCC(=O)OCC(=O)Nc1ccc(S(N)(=O)=O)cc1,25.4,–,–
Cc1cc(C)nc(NS(=O)(=O)c2ccc(NC(=O)C(C)C)cc2)n1,10.9,–,–
COc1ccc(-c2nc(C#N)c(N3CCN(c4ccccc4)CC3)o2)cc1,7.25,–,"7.31 µM [rising, partial curve, poor fit]"
